Some of the results follow.

A short description of this test: MT1-MMP activation inhibitors, cellular reporter – HT1080 RFP-PRO-GFP cells, GFP/RFP fluorescence, primary screen (AID 651647). The conditions noted are these: GFP/RFP ratio fluorescence, overnight, RFP expression control read, at 20 µM. The essentials:
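Assay system: HT1080 cells carrying an RFP-PRO-GFP reporter | Dosing: Single dose of 20 µM compound, 1% DMSO final | Incubation: Cells overnight before dosing, compound overnight, 37 °C, 5% CO2 | Evaluation: GFP/RFP fluorescence ratio | Control set: DMSO and RFP-L50D-GFP cell wells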
As for `CC1CCN(C(=O)Oc2c(Cl)cc(Cl)c3cccnc23)CC1`, the RFP signal change is -2.44%. To `CC(C)=N/N=C(\N)N[N+](=O)[O-]` belongs 4.4%. For `CC(C)c1nc(Nc2ccccc2)n(P(=O)(N(C)C)N(C)C)n1`, the RFP signal change was -2.81%.

With `CN(C)C(=O)OCCc1n(C)cc[n+]1C`, the RFP signal change came out at 3.63%. Under `CCN(/C(=N/P(=O)(N1CCOCC1)N1CCOCC1)N1CCOCC1)c1ccc(OC)cc1` stands 3.23%; under `CP(=O)(Nc1ccc(Cl)cc1)Oc1ccc(F)cc1` (configuration not stated), -0.801%; under `CC(C)(C)c1ccc(OP(C)(=O)O)cc1`, 1.48%. In the case of `Nc1ccc([As](=O)(O)c2ccc(N)cc2)cc1`, the RFP signal change came out at 0.688%. As for `COc1ccccc1OP(C)(=O)Nc1ccccc1Br` (configuration not stated), the RFP signal change was found to be 4.07%.

As to `C[N+]1=C2C=CC=CC=C2SC12C([N+](=O)[O-])=CC([N+](=O)[O-])=C[C-]2[N+](=O)[O-]` (configuration not stated), the RFP signal change is -14.6%. Under `CP(=O)(Oc1ccccc1)N1CCOC1=O` (configuration not stated) stands 2.48%; under `Cc1ccc(NP(=O)(Oc2ccccc2)Oc2ccccc2)nc1`, -0.473%; under `CCc1nc2c(n1)c1c(non1O)c1c2no[n+]1[O-]`, 7.2%. To `O=[N+]([O-])c1cc([N+](=O)[O-])c(CCNc2ccccc2)c([N+](=O)[O-])c1` belongs -5.51%. To `CCc1ccc(OP(C)(=O)Nc2cccnc2)cc1` (configuration not stated) belongs -5.8%; to `COc1ccccc1OP(C)(=O)Nc1c(C)n(C)n(-c2ccccc2)c1=O` (configuration not stated), -0.341%; to `O=[N+]([O-])c1cccc2n[nH]nc12`, 2.59%. With `CC(=O)N1C2C3N(C(C)=O)C1C1N(C(C)=O)C(C(N1C(C)=O)N3C(C)=O)N2C(C)=O`, the RFP signal change is 6.21%.

As for `O=C(OCCCN1CCCC1)C(O)(c1ccccc1)C1CCCCC1` (configuration not stated), the RFP signal change is 3.44%. Under `CCN(CC)CC(O)COC(=O)C(O)(c1ccccc1)C1CCCCC1` (configuration not stated) stands -6.34%. Under `COc1ccc(OP(C)(=O)Nc2ccc(Br)cc2)cc1` (configuration not stated) stands 1.27%; under `COc1ccc(C2=NCC(CBr)S2)cc1` (configuration not stated), -4.5%. To `CCC(C)N(CC(C)C)C(=S)SC(NC(C)=O)C(Cl)(Cl)Cl` (configuration not stated) belongs 2.3%. With `CP(=O)(Nc1ccccn1)Oc1ccc(Cl)cc1` (configuration not stated), the RFP signal change was -0.896%. Under `CCOP(C)(=S)SCC(=O)NC(C)C(=O)O` (configuration not stated) stands 2.68%; under `O=C(OC1CN2CCC1CC2)c1cccc([N+](=O)[O-])c1` (configuration not stated), -0.328%; under `CSc1ccc(Nc2c([N+](=O)[O-])cc([N+](=O)[O-])cc2[N+](=O)[O-])cc1`, -9.25%. Under `CCOC(=O)c1ccc(NP(C)(=O)Oc2ccc(OC)cc2)cc1` (configuration not stated) stands -0.736%; under `CCOC(=O)c1ccc(NC(=O)C(C)(CCl)SC)cc1` (configuration not stated), 0.861%; under `O=[N+]([O-])c1cc([N+](=O)[O-])c(O)c([N+](=O)[O-])c1.c1ccc(Oc2ccncc2)cc1`, 3.44%. `CCc1ccc(OP(C)(=O)N2CCN(c3ccc([N+](=O)[O-])cc3)CC2)cc1` (configuration not stated): the RFP signal change is -22.5%.

Take `O=C(COc1ccccc1)OC1CN2CCC1CC2` (configuration not stated): the RFP signal change is -0.383%. For `CP(=O)(NC(=O)Nc1ccccc1)Oc1ccccc1` (configuration not stated), the RFP signal change was -0.505%.

With `O=C(Nc1ccncc1[N+](=O)[O-])c1ccc([N+](=O)[O-])cc1[N+](=O)[O-]`, the RFP signal change is -12%. With `Cc1cc(C)cc(OP(C)(=O)Nc2ccc(SC(F)(F)F)cc2)c1` (configuration not stated), the RFP signal change was -3.79%. To `Cc1ccc(Nc2c([N+](=O)[O-])cc([N+](=O)[O-])cc2[N+](=O)[O-])cc1` belongs -4.75%; to `Cc1cccc(C)c1OP(C)(=O)Nc1ccc(SC(F)(F)F)cc1` (configuration not stated), 2.49%; to `CP(=O)(Nc1ccc(SC(F)(F)F)cc1)Oc1ccc(Cl)cc1` (configuration not stated), -3.34%. Under `COP1(=S)c2c(C)nn(CCC#N)c2N=C(c2ccc(F)cc2)N1C` (configuration not stated) stands -1.61%; under `CP(=O)(Oc1ccccc1)OC(c1ccccc1)C(F)(F)F` (configuration not stated), 1.84%. On to `COC(=O)C1(C)COP(=O)(N2CCCC2)OC1` (configuration not stated), for which the RFP signal change was found to be 1.47%.

On to `O=P(Nc1ccccn1)(c1cccc2ccccc12)c1cccc2ccccc12`, for which the RFP signal change was -2.07%.

Regarding `Cc1cc(SC(NC=O)C(Cl)(Cl)Cl)ncn1` (configuration not stated), the RFP signal change is 4.75%. `COc1ccccc1OP(C)(=O)Nc1ccccc1` (configuration not stated): the RFP signal change was 3.14%. Under `CP(=O)(Nc1ccccc1Br)Oc1ccccc1` (configuration not stated) stands 4.61%; under `O=[N+]([O-])c1ccc(Nc2ccc(Oc3ccc([N+](=O)[O-])cc3[N+](=O)[O-])cc2)c([N+](=O)[O-])c1`, -3.46%; under `CP(=S)(Nn1cnnc1)Oc1ccccc1` (configuration not stated), 2.2%. With `CCOC(=O)Nc1cccc([As](=O)(O)O)c1`, the RFP signal change was 10.1%.

On to `COP(=O)(OC)N1CC1c1ccccc1` (configuration not stated), for which the RFP signal change is 0.835%. Under `CCCCOc1ccc(C(=O)NCC2(N3CCCCC3)CCCCC2)cc1OC` stands 2.48%; under `Cc1cc(SC(NC(=O)c2ccccc2)C(Cl)(Cl)Cl)nc(C(C)C)n1` (configuration not stated), -1.82%. `CCOC(=O)Nc1ccc([As](=O)(O)O)c(O)c1`: the RFP signal change came to 8.48%. Under `O=C(O)C(=O)c1ccc(N(CCCl)CCCl)cc1.c1ccc(Nc2ccccc2)cc1` stands -2.41%; under `CC1CCNP(=O)(N(CCCl)CCCl)O1` (configuration not stated), 1.86%; under `CCN(CC)C(=S)SC(NC=O)C(Cl)(Cl)Cl` (configuration not stated), 2.99%. Under `O=C(OC1CN2CCC1CC2)c1cccc2[nH]cnc12` (configuration not stated) stands 1.84%; under `COc1ccccc1OP(C)(=O)Nc1cc(Cl)ccc1C` (configuration not stated), 6.48%.

These data come from PubChem BioAssay AID651647 (Sanford-Burnham Center for Chemical Genomics, 2012).
